Experimental data taken from PubChem BioAssay AID540276 (National Center for Advancing Translational Sciences (NCATS), 2011).
“And” between values parts separate entries of the source, which are not always exact repeats. Equal entries are not always repeated. Out of some 300,000 compounds screened, about 5,400 (1.8%) were called active. The inconclusive results got no clear call from the source; some entries with a clear call stand among them for comparison. Calls follow the shape of the full dose curve; tested in HEK293 cells. A potency beside an inconclusive call is a rough fit, not a confirmed value.

Assay: qHTS for inhibitors of binding or entry into cells for Marburg Virus
Details: Marburg virus pseudotyped entry inhibition, cell reporter; series mostly up to 37.8 µM
Potency is read from the fitted curve at half-maximal effect.

Row | Compound | Potency
1 | COc1ccc2[nH]c3nc(SCc4nnc(-c5ccc(C)cc5)o4)nnc3c2c1 | inconclusive: 32.6 µM [inhibitor, single point]
2 | Cc1ccc(C)c(OCCn2cc(/C=C(\C#N)C(=O)NCC3CCCO3)c3ccccc32)c1 (stereo not given) | inconclusive: 20.6 µM [inhibitor, partial curve, poor fit]
3 | COc1ccccc1CC(=O)N1CCN(c2ccc(F)cc2)CC1 | inconclusive: 1.26 µM [activator, partial curve, poor fit]
4 | CCn1c(C)[n+](Cc2ccccc2)c2ccc(Cl)cc21 | inactive
5 | Cc1ccc(CNC(=O)CN2CCN(Cc3ccc(C)cc3)C2=O)cc1 | inconclusive: 1.78 µM [activator, partial curve, poor fit]
6 | Cn1cnnc1Sc1cc(N2CCN(S(=O)(=O)c3ccc(Cl)c(Cl)c3)CC2)ccc1[N+](=O)[O-] | inconclusive: 12.6 µM [inhibitor, partial curve]
7 | COc1ccc(CCNC(=O)C2CCN(S(=O)(=O)N3CC(C)CC(C)C3)CC2)cc1OC (stereo not given) | inconclusive: 25.9 µM [inhibitor, partial curve, poor fit]
8 | CCCS(=O)(=O)c1nnnn1-c1cccc(OC)c1 | active: 25.9 µM
9 | CCC1=C(c2ccc(C)cc2)S(=O)(=O)N=C1N1CCC(C(=O)NCCc2ccc(Cl)cc2)CC1 | inconclusive: 17.8 µM [inhibitor, partial curve, poor fit]
10 | COc1cc2c(cc1NC(=O)Nc1cccc(C)c1)oc1ccccc12 | inactive
11 | Cc1cc(-c2nnc3sc(-c4ccc(Cl)cc4Cl)nn23)n[nH]1 | inconclusive: 14.1 µM [activator, single point]
12 | COc1ccc(S(=O)(=O)N2CCCCCC2)cc1NC(C)C(=O)Nc1ccc(NC(C)=O)cc1 (stereo not given) | inconclusive: 3.16 µM [inhibitor, single point]
13 | CCCn1c(CCC(=O)Nc2ccc(C)c(Cl)c2)nc2cccnc21 | inactive
14 | CCCOc1ccc(C(=O)NCc2ccco2)cc1 | inactive
15 | Oc1ccc(Br)cc1-c1nc2cnccn2c1NC1CCCC1 | inconclusive: 29.1 µM [inhibitor, single point]
16 | O=C(CSc1nc(-c2ccccc2)cs1)Nc1ccccc1[N+](=O)[O-] | inconclusive: 0.501 µM [activator, single point]
17 | Cc1cccc(N2C(=O)CC(N3CCC(c4nc5ccccc5[nH]4)CC3)C2=O)c1 (stereo not given) | inactive
18 | CC(C)[C@@H]1NC(=O)c2cc([N+](=O)[O-])cc(I)c2NCC[C@@H](C(N)=O)NC(=O)[C@H](CO)NC1=O | inconclusive: 29.1 µM [activator, partial curve, poor fit]
19 | NS(=O)(=O)c1ccc(CCNc2nc(CN3CCCCC3)nc3sc4c(c23)CCC4)cc1 | active: 20.6 µM
20 | C[C@@H]1O[C@H](C[N+](C)(C)C)CS1 | inconclusive: 15.8 µM [activator, single point] and inconclusive: 23.1 µM [activator, partial curve, poor fit]
21 | COc1ccc(-c2noc(C3CCCN(C(=O)c4ccccc4OC)C3)n2)cc1OC (stereo not given) | inconclusive: 23.1 µM [inhibitor, single point]
22 | CSc1ccccc1C(=O)Nc1ccc(C)cc1C | inactive

Row | Compound | Potency
23 | CCCOc1ccc(-c2cnc(SCC(N)=O)nc2N)cc1 | inconclusive: 20 µM [inhibitor, single point]
24 | CN(C)CCC#CC(O)(c1ccccc1)c1ccccc1 | inconclusive: 14.1 µM [activator, single point]
25 | O=C(NC(Cc1ccc(O)cc1)C(=O)N=Nc1c(O)[nH]c2ccccc12)c1ccccc1 (stereo not given) | inactive
26 | CC(C)(C)C(=O)Nc1nc2c(s1)CN(Cc1ccccc1)CC2 | inconclusive: 35.5 µM [inhibitor, single point]
27 | COc1ccc(OCC(=O)Nc2nc3ccccc3[nH]2)cc1 | inactive
28 | CC(C)(C)NS(=O)(=O)c1ccc(OCC(=O)Nc2ccc3c(c2)OCCO3)cc1 | inconclusive: 11.2 µM [inhibitor, partial curve, poor fit]
29 | O=C(CSc1nc(C2CCCCC2)n(-c2ccccc2)n1)NCC(F)(F)F | inconclusive: 22.4 µM [inhibitor, single point]
30 | COc1ccc(CC(=O)N(Cc2nc(-c3ccc(C)cc3)no2)C(C)C)cc1 | inactive
31 | CC(C)CN(C(=O)CCNC(=O)c1ccc([N+](=O)[O-])cc1)C1CCS(=O)(=O)C1 (stereo not given) | inactive
32 | COc1ccc(N2CCN(C(=O)CN(c3ccc(OC)cc3)S(=O)(=O)c3ccccc3)CC2)cc1 | inconclusive: 3.55 µM [inhibitor, partial curve, poor fit]
33 | O=c1c(Cl)c(N2CCN(S(=O)(=O)c3ccc(F)cc3)CC2)cnn1-c1cccc(Cl)c1 | inconclusive: 0.58 µM [inhibitor, full curve, poor fit]
34 | Cc1cc(C(=O)NCc2cccs2)no1 | inactive
35 | COC(=O)c1[nH]c2ccc(Br)cc2c1NC(=O)CN1CCCCC1CCO (stereo not given) | inactive
36 | CN(C)c1ccc(NC(=O)c2cccc([N+](=O)[O-])c2)c2ccccc12 | inconclusive: 7.94 µM [activator, partial curve, poor fit]
37 | CCN1CCN(C(=O)c2ccc(Cl)c(S(=O)(=O)N3CCOCC3)c2)CC1 | inactive
38 | CC(C)COC(=O)c1nnsc1NC(=O)Nc1ccccc1 | inconclusive: 3.66 µM [inhibitor, full curve]
39 | CC1(C)O[C@H]2O[C@H]([C@H](O)CO/N=C3/[C@H]4CCn5c(=O)n(-c6ccccc6)c(=O)n5[C@H]4[C@H](O)[C@@H]4O[C@H]34)[C@H](O)[C@H]2O1 | inconclusive: 2.99 µM [activator, single point]
40 | CS(=O)(=O)N1CCC(C(=O)Nc2cccc(Cl)c2)CC1 | inconclusive: 2.24 µM [activator, partial curve, poor fit]
41 | Cc1cc(C)c2c(c1)cc(C)c1nnc(SCC(=O)Nc3cc(C)on3)n12 | inconclusive: 9.2 µM [inhibitor, partial curve, poor fit]
42 | O=c1c2cc(Cl)ccc2[nH]c(=S)n1Cc1ccco1 | inactive
43 | O=C(Nc1ccc2nc3n(c(=O)c2c1)CCCCC3)c1c(F)ccc([N+](=O)[O-])c1F | active: 7.08 µM
44 | COC(=O)c1c(NC(=O)C2COc3ccccc3O2)sc2c1CCN(Cc1ccccc1)C2 (stereo not given) | inconclusive: 10 µM [inhibitor, partial curve]

Part of the list above, in CSV form:
Row,Compound,Potency
1,COc1ccc2[nH]c3nc(SCc4nnc(-c5ccc(C)cc5)o4)nnc3c2c1,"inconclusive: 32.6 µM [inhibitor, single point]"
2,Cc1ccc(C)c(OCCn2cc(/C=C(\C#N)C(=O)NCC3CCCO3)c3ccccc32)c1 (stereo not given),"inconclusive: 20.6 µM [inhibitor, partial curve, poor fit]"
3,COc1ccccc1CC(=O)N1CCN(c2ccc(F)cc2)CC1,"inconclusive: 1.26 µM [activator, partial curve, poor fit]"
7,COc1ccc(CCNC(=O)C2CCN(S(=O)(=O)N3CC(C)CC(C)C3)CC2)cc1OC (stereo not given),"inconclusive: 25.9 µM [inhibitor, partial curve, poor fit]"
9,CCC1=C(c2ccc(C)cc2)S(=O)(=O)N=C1N1CCC(C(=O)NCCc2ccc(Cl)cc2)CC1,"inconclusive: 17.8 µM [inhibitor, partial curve, poor fit]"
10,COc1cc2c(cc1NC(=O)Nc1cccc(C)c1)oc1ccccc12,inactive
11,Cc1cc(-c2nnc3sc(-c4ccc(Cl)cc4Cl)nn23)n[nH]1,"inconclusive: 14.1 µM [activator, single point]"
16,O=C(CSc1nc(-c2ccccc2)cs1)Nc1ccccc1[N+](=O)[O-],"inconclusive: 0.501 µM [activator, single point]"
19,NS(=O)(=O)c1ccc(CCNc2nc(CN3CCCCC3)nc3sc4c(c23)CCC4)cc1,active: 20.6 µM
20,C[C@@H]1O[C@H](C[N+](C)(C)C)CS1,"inconclusive: 15.8 µM [activator, single point] and inconclusive: 23.1 µM [activator, partial curve, poor fit]"
21,COc1ccc(-c2noc(C3CCCN(C(=O)c4ccccc4OC)C3)n2)cc1OC (stereo not given),"inconclusive: 23.1 µM [inhibitor, single point]"
22,CSc1ccccc1C(=O)Nc1ccc(C)cc1C,inactive
26,CC(C)(C)C(=O)Nc1nc2c(s1)CN(Cc1ccccc1)CC2,"inconclusive: 35.5 µM [inhibitor, single point]"
27,COc1ccc(OCC(=O)Nc2nc3ccccc3[nH]2)cc1,inactive
29,O=C(CSc1nc(C2CCCCC2)n(-c2ccccc2)n1)NCC(F)(F)F,"inconclusive: 22.4 µM [inhibitor, single point]"
30,COc1ccc(CC(=O)N(Cc2nc(-c3ccc(C)cc3)no2)C(C)C)cc1,inactive
31,CC(C)CN(C(=O)CCNC(=O)c1ccc([N+](=O)[O-])cc1)C1CCS(=O)(=O)C1 (stereo not given),inactive
41,Cc1cc(C)c2c(c1)cc(C)c1nnc(SCC(=O)Nc3cc(C)on3)n12,"inconclusive: 9.2 µM [inhibitor, partial curve, poor fit]"
43,O=C(Nc1ccc2nc3n(c(=O)c2c1)CCCCC3)c1c(F)ccc([N+](=O)[O-])c1F,active: 7.08 µM

(listing goes on)

Row | Compound | Potency
45 | CCOc1ccc2nc(C)cc(Nc3cccc([N+](=O)[O-])c3)c2c1 | inconclusive: 14.6 µM [inhibitor, partial curve, poor fit]
46 | CN(C)C(CNC(=O)CNC(=O)c1ccc(Br)cc1)c1ccccc1 (stereo not given) | inconclusive: 3.55 µM [activator, single point]
47 | CCCCCC(=O)Nc1cc(S(=O)(=O)N2CCOCC2)ccc1N1CCCCC1 | inconclusive: 6.31 µM [inhibitor, full curve]
48 | O=[N+]([O-])c1ccc(N2CCCCC2)cc1 | inactive
49 | Cc1cccc(Nc2nc3c(S(=O)(=O)c4ccccc4)nnn3c3ccccc23)c1C | inconclusive: 1.46 µM [inhibitor, partial curve, poor fit]
50 | Cc1nn(C)c(=O)c(N)c1-c1cc(-c2ccc(Cl)c(Cl)c2)n[nH]1 | inconclusive: 35.5 µM [inhibitor, single point]
51 | CN1CCN(Cc2cccc(Oc3ccc(Cl)cc3)c2)CC1 | inconclusive: 20.6 µM [inhibitor, single point]
52 | O=C(Nc1ccc2nc(SCCOc3ccccc3Cl)sc2c1)c1ccc2c(c1)OCO2 | inactive
53 | COc1ccc(/C=C/C(=O)c2cc3c(cc2N)OCO3)cc1 | inconclusive: 35.5 µM [inhibitor, single point]
54 | Cc1ccc(CNCC(O)(c2ccc(F)cc2)c2ccc(F)cc2)cc1 | inactive
55 | CC1CC(C)CN(C(=O)C(C)N(C)CC(=O)Nc2ccc(F)cc2)C1 (stereo not given) | inconclusive: 14.1 µM [inhibitor, partial curve, poor fit]
56 | Cc1occc1-c1nnc(SCC(=O)NCCc2ccccc2)n1C(C)c1ccccc1 (stereo not given) | inactive
57 | O=C(C(=O)N1CCCc2ccccc21)N1CCCc2ccccc21 | inconclusive: 3.66 µM [activator, single point]
58 | Cc1c(C(=O)N(Cc2ccco2)Cc2ccccc2Cl)oc2ccc(F)cc12 | inconclusive: 35.5 µM [inhibitor, single point]
59 | COc1cc(OC)c(NC(=O)C(Cc2ccccc2)NS(=O)(=O)c2cccc3nsnc23)cc1Cl (stereo not given) | inactive
60 | O=C(/C=C/c1ccc(Cl)cc1)NC(=S)Nc1ccc(NC(=O)c2ccco2)cc1 | inconclusive: 3.98 µM [inhibitor, full curve, poor fit]
61 | COC(=O)Nc1ccc(S(=O)(=O)N2CCC(C(=O)N3CCCC(C)C3)CC2)cc1 (stereo not given) | inactive
62 | COC(=O)c1ccc(CNC(=O)COC(=O)C23CC4CC(CC(C4)C2)C3)cc1 | inconclusive: 2 µM [inhibitor, partial curve, poor fit]
63 | S=c1[nH]nc(COc2ccccc2)n1Cc1ccccc1 | inconclusive: 0.316 µM [activator, partial curve, poor fit]
64 | Cc1ccc(NC2C(=O)NC(=O)NC2=O)cc1 | inconclusive: 2.51 µM [activator, partial curve, poor fit]
65 | Cc1cc(NC(=O)CSc2nc3c([nH]c4ccccc43)c(=O)n2-c2cccc(C(F)(F)F)c2)no1 | inconclusive: 8.91 µM [inhibitor, partial curve, poor fit]
